Assay [1] concerns the target T1, Drosophila APP Like (APPL), FLAG-tagged (Drosophila melanogaster) (UniProt P14599).
T1 sequence: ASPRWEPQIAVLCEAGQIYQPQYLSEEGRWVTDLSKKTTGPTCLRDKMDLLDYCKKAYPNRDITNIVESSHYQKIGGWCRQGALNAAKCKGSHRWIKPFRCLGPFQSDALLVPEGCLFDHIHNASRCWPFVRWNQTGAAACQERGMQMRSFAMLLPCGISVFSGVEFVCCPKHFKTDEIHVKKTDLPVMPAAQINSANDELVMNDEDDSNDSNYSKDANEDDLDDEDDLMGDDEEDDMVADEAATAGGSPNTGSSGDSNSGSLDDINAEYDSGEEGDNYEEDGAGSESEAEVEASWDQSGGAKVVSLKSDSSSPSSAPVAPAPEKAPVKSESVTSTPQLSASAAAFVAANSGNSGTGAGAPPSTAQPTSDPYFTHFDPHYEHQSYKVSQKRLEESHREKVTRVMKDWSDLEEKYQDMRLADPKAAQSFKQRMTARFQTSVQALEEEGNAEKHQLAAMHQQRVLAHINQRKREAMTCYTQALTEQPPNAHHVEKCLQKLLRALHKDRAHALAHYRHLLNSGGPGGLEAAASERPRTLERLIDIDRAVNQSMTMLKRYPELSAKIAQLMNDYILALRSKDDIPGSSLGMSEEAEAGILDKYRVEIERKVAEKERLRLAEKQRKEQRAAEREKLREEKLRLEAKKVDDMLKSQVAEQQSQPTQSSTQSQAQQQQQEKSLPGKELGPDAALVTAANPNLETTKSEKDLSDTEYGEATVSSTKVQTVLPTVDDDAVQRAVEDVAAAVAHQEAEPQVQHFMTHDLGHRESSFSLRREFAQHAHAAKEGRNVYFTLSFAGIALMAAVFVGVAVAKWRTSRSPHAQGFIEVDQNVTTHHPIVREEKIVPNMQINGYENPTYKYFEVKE
Nature of the assay: co-IP; Drosophila tagged proteins co-expressed in HEK293T cells; lysis in 150 mM NaCl, 50 mM Tris/HCl pH 7.5, 10% glycerol, 0.4% Nonidet P-40; IP with anti-FLAG conjugated to Dynabeads M-270, 1 h at 4°C (reverse IP by the partner's tag); Western blot. In general terms: A western blot detects proteins with antibodies after separation by electrophoresis.

By UniProt entry, the sequences of proteins in these tests, tags left out. Where a name states a change or a piece, a line headed by the entry shows the natural chain unless it says otherwise. Residues count along the entry.
UniProt P05067: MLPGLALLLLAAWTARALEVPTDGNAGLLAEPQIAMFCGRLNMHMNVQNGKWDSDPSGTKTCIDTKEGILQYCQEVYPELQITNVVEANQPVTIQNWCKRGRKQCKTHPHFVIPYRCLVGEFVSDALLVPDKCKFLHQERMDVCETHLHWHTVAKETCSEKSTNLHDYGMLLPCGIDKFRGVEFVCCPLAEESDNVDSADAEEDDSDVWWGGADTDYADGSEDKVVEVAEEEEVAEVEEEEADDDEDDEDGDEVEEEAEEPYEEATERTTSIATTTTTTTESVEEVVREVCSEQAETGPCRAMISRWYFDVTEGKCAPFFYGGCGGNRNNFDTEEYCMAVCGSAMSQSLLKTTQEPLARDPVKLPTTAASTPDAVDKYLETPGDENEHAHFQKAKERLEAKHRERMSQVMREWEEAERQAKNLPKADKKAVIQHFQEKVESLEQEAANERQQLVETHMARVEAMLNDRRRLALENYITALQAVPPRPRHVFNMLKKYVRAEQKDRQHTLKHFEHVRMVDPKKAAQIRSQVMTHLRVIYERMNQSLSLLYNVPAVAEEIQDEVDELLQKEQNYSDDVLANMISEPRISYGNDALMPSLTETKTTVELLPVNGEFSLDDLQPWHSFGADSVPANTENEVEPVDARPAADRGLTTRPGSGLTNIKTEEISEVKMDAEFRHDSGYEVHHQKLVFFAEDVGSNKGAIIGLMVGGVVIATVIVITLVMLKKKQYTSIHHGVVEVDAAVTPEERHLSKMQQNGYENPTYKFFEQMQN
UniProt Q13467, residues 27-585: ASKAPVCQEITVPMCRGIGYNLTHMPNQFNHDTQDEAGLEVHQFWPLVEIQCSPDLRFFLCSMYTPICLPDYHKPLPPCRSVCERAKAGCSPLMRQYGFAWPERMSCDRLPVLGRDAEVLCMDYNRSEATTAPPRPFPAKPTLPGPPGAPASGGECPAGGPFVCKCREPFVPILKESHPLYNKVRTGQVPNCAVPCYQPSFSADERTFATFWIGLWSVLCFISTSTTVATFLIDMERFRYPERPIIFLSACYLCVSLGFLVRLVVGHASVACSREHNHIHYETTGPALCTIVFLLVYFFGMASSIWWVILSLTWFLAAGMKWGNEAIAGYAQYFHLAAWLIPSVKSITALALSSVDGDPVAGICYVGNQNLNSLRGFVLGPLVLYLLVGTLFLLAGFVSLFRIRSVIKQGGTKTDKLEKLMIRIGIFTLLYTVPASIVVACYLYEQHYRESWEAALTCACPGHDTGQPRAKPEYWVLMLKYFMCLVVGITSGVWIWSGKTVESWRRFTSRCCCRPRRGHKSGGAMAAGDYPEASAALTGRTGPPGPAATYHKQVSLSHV

Assay [2] has as its target membrane tethered C-terminus of human APP (APP-C99), FLAG-tagged (human) (UniProt P05067). Nature of the assay: co-IP; Drosophila and human (or human and human) tagged proteins co-expressed in HEK293 cells; lysis in Tris pH 7.4, 150 mM NaCl, 1 mM EDTA, 0.5% NP40, 1 mM DTT; 1 µg immunoprecipitating antibody 1 h at 4°C, Protein G sepharose overnight; Western blot.

These are yes or no findings as the source states them, for the method shown. In cells and extracts the contact can be indirect. Binding calls can cover weak binding; strength is not graded here. For some assays here: Where a sequence is shown, tags or fusion partners need not be part of it.

For “Drosophila Van Gogh/Strabismus (Vang), Myc-tagged”, the binding result in assay [1] is recorded as “binds”. With “human Frizzled 5 (Fzd5), V5-tagged (from UniProt Q13467 27-585) (receptor)”, the binding entry in assay [2] is listed as “binds”.

The record behind these values is paper PMC3653798.
